According to PubChem BioAssay AID340 (DTP/NCI, 2004):
The list is a part of this screen's results and no random one: it gathers some chemical classes. Other doses and runs of a compound may be missing. T/C: endpoint of the treated group in % of that of the vehicle group. For survival time, this PubChem deposit counts one and a half times the control or more as active, and values a quarter to a half above the control carry no call in these data; other NCI protocols may use other cut-offs. Some entries show no survivor count and are marked so; the dose need not have been tolerated. Schedules are NCI's codes, taken here to give the interval after Q, in days (D) or hours (H), and the number of doses after X. Signs of the kind (2×) give the number of equal values in this list. Some entries hold several experiments; the values are given in rising order.

Test system: CD2F1 mice, ip reticulum cell sarcoma, survival T/C
Test: NCI In Vivo Anticancer Drug Screen. Data for tumor model Reticulum Cell Sarcoma (Kelley Mouse) (intraperitoneal) in CD2F1 (CDF1) mice
Details: T/C endpoint: median survival time, schedule: Q01DX010 (ip), vehicle: saline, higher T/C = longer survival
Procedure: The antitumor activity of compounds was measured in mice bearing transplantable tumors. Survival or tumor size were measured and the results are expressed as the measurement made in the treated group (T) divided by the measurement made in the vehicle treated control group (C). The tumor model used in this assay is Reticulum Cell Sarcoma (Kelley Mouse) (intraperitoneal) in CD2F1 (CDF1) mice

CN(CCCl)CCCl
T/C (dose: 0.13 mg/kg/injection): 91 [survivor count not shown] and 94 % of control [survivor count not shown]
T/C (dose: 0.25 mg/kg/injection): 100 [survivor count not shown] and 102 % of control [survivor count not shown]
T/C (dose: 0.5 mg/kg/injection): 108 % of control [survivor count not shown] (2×)
T/C (dose: 1.0 mg/kg/injection): 100 [survivor count not shown] and 102 % of control [survivor count not shown]
